Assay results taken from the supplement of paper PMC7666118.
Some of the results follow.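 The calls were made as follows: active = dose-dependent thermal stabilisation significant by F-test of dose-response against flat model at 10% FDR; inactive = not significant.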

Sequences of proteins named here, by UniProt entry; tags and fusion partners are left off. A change or cut given only in a name is not applied to a line headed by its entry.
UniProt Q15031: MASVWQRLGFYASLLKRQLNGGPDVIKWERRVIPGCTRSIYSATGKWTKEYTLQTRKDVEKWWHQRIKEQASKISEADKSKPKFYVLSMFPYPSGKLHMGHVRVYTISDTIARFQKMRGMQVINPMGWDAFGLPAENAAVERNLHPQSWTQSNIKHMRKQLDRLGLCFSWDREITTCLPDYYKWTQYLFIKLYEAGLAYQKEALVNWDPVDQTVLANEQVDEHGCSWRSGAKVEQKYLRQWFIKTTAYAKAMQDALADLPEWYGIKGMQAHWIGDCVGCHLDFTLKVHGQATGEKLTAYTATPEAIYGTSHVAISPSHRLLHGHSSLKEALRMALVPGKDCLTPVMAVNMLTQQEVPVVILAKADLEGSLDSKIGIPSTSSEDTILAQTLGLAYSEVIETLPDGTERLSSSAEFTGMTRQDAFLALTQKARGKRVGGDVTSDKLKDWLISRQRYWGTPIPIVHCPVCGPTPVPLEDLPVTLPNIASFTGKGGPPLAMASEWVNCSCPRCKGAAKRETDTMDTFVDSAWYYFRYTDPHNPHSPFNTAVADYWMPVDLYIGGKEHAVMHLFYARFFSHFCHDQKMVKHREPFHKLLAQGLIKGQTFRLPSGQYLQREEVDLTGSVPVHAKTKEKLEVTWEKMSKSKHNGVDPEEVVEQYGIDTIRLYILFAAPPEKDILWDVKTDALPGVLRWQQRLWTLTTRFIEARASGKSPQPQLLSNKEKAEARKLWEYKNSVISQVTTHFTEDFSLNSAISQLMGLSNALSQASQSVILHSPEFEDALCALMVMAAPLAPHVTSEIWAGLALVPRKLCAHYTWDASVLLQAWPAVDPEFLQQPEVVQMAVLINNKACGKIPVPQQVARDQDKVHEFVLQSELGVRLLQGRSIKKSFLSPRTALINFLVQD
UniProt Q9H7X7: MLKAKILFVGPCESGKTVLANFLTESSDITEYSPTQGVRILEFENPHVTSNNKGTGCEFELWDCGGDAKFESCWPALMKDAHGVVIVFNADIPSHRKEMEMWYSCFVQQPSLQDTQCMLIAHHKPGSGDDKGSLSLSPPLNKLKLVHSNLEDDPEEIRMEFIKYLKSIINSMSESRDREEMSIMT
UniProt Q86U28: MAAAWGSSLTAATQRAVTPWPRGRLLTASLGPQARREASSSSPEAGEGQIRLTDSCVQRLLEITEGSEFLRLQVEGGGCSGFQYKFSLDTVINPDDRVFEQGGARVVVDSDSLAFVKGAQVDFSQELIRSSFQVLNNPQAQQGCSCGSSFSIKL
UniProt O00629, whole entry: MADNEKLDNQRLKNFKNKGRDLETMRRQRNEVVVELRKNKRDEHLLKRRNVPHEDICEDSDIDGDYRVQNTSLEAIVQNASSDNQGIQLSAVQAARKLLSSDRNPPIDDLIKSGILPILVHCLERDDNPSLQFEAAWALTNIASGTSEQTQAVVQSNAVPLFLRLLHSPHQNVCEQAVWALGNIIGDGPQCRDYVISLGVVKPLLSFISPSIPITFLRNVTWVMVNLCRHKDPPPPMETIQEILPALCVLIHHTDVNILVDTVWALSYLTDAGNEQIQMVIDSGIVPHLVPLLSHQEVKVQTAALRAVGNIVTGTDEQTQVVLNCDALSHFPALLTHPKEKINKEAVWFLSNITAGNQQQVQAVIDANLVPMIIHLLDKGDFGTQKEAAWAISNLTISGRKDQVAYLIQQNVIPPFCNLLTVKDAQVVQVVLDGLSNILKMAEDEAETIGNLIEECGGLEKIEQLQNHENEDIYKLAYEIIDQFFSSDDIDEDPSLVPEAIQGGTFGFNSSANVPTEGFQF
UniProt Q7L273: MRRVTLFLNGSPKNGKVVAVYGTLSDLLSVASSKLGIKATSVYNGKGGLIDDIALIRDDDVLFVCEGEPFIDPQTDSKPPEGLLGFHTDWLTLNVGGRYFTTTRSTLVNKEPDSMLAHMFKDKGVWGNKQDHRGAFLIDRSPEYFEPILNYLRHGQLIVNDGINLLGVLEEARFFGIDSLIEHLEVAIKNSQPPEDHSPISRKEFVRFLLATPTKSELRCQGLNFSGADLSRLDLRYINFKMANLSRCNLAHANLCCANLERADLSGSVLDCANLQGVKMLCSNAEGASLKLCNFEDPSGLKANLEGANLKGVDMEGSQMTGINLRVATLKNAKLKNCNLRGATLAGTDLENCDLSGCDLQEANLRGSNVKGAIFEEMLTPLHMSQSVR
UniProt Q9H3F6: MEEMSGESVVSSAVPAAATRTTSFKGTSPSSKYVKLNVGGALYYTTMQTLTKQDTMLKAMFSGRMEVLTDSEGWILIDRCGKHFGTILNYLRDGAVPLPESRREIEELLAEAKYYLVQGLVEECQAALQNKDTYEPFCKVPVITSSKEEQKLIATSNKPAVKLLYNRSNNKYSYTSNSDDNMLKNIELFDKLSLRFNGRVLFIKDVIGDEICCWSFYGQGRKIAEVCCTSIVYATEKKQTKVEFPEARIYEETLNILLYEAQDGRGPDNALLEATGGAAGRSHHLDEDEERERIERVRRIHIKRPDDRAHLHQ
UniProt O43390: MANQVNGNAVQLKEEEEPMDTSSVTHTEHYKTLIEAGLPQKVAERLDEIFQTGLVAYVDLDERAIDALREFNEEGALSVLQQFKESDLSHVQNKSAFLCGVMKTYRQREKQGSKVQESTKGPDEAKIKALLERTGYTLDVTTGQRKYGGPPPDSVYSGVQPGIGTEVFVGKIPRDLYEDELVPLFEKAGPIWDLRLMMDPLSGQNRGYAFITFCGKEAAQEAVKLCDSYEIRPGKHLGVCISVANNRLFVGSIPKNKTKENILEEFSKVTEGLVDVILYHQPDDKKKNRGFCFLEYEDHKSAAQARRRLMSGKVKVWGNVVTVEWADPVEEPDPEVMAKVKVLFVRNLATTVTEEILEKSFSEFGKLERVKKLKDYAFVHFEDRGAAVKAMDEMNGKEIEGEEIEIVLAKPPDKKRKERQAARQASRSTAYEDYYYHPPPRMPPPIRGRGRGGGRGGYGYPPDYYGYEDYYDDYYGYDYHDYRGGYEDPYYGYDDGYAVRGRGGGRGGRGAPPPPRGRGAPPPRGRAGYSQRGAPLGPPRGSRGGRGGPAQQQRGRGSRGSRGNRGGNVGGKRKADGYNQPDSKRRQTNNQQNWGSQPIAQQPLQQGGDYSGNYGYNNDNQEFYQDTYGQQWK
UniProt P50053: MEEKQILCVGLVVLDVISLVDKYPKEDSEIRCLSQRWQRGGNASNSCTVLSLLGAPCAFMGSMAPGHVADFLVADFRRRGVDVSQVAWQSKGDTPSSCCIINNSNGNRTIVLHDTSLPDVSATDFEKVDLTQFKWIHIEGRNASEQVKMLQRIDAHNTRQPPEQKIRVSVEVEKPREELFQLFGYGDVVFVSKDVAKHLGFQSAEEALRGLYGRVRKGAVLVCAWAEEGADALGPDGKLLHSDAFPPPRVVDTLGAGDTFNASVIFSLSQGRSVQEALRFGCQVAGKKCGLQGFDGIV
UniProt Q9ULH0: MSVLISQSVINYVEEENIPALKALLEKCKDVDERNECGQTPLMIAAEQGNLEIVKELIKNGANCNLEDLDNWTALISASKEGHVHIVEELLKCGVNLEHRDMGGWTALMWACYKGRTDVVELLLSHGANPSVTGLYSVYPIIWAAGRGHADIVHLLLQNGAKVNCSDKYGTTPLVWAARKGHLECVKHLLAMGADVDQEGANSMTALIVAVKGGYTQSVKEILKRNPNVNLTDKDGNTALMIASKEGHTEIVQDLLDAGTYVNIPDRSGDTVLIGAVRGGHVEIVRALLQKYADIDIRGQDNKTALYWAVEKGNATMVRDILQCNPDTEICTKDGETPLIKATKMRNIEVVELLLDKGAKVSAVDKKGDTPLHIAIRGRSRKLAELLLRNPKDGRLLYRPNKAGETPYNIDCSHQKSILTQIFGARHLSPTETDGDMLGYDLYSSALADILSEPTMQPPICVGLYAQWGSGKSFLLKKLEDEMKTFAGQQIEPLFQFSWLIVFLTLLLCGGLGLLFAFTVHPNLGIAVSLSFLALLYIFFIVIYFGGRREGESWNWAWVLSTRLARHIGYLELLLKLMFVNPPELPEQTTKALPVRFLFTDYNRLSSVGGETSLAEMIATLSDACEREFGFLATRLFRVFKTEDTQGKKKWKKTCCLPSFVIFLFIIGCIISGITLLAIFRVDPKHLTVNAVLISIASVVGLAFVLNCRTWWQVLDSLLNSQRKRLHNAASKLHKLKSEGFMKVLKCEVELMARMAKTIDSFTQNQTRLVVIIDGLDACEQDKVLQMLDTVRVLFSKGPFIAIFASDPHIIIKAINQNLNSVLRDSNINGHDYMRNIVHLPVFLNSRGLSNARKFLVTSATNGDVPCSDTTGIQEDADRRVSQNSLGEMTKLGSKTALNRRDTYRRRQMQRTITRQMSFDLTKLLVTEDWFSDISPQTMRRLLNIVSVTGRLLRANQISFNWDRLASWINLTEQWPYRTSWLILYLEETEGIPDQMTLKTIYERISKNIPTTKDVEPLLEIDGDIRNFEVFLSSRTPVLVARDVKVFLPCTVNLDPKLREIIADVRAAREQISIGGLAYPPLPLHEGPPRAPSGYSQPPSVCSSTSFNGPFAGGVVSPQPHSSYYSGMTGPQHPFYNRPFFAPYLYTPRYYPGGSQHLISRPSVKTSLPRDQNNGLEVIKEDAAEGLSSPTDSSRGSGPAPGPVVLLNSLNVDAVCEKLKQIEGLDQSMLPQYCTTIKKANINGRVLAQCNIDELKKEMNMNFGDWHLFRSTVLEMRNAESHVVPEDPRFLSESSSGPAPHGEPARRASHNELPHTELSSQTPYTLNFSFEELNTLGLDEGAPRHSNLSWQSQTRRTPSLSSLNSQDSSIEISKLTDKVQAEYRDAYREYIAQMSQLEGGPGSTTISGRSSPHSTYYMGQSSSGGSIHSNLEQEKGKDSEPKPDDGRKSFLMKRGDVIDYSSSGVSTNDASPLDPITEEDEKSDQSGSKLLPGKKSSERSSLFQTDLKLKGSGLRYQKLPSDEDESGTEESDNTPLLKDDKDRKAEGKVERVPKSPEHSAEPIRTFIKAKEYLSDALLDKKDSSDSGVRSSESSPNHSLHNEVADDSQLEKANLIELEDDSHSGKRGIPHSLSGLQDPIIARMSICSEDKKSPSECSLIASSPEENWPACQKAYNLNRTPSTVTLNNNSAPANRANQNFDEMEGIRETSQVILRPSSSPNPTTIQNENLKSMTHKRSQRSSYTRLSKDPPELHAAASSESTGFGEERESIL
UniProt Q96SY0, whole entry: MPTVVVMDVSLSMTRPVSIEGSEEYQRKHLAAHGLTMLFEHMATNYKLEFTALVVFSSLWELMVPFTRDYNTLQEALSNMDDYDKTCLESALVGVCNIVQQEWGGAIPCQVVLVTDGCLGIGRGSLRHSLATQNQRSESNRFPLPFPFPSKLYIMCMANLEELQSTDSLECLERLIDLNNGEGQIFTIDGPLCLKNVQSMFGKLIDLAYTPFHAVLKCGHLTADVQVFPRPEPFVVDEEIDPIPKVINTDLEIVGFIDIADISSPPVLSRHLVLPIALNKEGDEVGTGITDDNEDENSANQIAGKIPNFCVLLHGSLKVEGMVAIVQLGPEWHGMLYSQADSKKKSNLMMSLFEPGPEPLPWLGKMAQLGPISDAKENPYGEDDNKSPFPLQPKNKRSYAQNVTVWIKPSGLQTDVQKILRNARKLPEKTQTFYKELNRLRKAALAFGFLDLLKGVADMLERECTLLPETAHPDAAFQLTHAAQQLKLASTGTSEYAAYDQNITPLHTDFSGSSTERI
UniProt P49917: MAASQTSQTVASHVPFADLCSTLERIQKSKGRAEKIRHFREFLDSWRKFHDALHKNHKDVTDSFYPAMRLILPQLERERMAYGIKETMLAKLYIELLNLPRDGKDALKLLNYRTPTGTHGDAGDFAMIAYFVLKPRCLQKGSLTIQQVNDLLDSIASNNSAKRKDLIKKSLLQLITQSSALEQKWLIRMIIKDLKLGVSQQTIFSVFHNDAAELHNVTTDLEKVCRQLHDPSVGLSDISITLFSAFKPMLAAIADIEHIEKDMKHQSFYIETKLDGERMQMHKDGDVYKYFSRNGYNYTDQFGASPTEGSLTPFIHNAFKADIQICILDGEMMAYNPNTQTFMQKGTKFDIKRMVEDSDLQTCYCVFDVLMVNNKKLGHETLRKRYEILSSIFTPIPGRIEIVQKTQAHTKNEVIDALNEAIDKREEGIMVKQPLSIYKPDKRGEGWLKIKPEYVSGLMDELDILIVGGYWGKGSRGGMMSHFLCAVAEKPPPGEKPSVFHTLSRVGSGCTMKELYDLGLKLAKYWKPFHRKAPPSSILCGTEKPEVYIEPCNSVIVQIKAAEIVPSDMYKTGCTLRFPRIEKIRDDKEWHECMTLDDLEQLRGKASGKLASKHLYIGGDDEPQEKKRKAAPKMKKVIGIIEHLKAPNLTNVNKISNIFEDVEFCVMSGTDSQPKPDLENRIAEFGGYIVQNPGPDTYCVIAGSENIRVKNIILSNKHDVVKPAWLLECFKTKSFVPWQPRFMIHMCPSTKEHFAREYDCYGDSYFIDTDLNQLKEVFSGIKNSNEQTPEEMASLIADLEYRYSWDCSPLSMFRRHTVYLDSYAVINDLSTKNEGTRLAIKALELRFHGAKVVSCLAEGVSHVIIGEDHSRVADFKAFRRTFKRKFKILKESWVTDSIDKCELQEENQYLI

Compound: Nc1nc2c(ncn2[C@@H]2O[C@H](COP(=O)(O)OP(=O)(O)OP(=O)(O)O)[C@@H](O)[C@H]2O)c(=O)[nH]1
Assay: dose-dependent thermal stabilisation call (2D-TPP, DLPTP, 10% FDR) (binary (1 = stabilised)); higher = stabilised by the compound
Details: system: Jurkat gel-filtered lysate; concentration range 1-500 µM
Protocol: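 2D thermal proteome profiling in gel-filtered Jurkat E6.1 lysate (2 mg/ml) treated with NaGTP (0, 1, 10, 100, 500 uM) for 10 min at room temperature, then heated 3 min at one of 12 temperatures (42-63.9 C). Soluble protein was quantified by TMT10 MS. The value is the DLPTP call of the paper: dose-dependent thermal stabilisation over all temperatures at 10% FDR (F-test of a dose-response against a flat model); one experiment, one call per tested protein.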

Q: Which “dose-dependent thermal stabilisation call” value does the source give for IRAK4 (UniProt Q9NWZ3) here?
A: The value was inactive: 0.

Q: For KIAA0513 (UniProt O60268), which “dose-dependent thermal stabilisation call” value is on record?
A: Its value is inactive: 0.

Q: Which “dose-dependent thermal stabilisation call” value does the source give for HSPA14 (UniProt Q0VDF9) here?
A: The value was inactive: 0.

Q: I3L1I5 (UniProt Q6ZSZ5) was tested. Which “dose-dependent thermal stabilisation call” value did it give?
A: Its value is inactive: 0.

Q: Which “dose-dependent thermal stabilisation call” value does the source give for LAMP2 (UniProt P13473) here?
A: Its value is inactive: 0.

Q: With KYAT1 (UniProt Q16773) as the target, how does the “dose-dependent thermal stabilisation call” value read?
A: The value was inactive: 0.

Q: For LHPP (UniProt Q9H008), which “dose-dependent thermal stabilisation call” value is on record?
A: Its value is inactive: 0.

Q: For LARS2 (UniProt Q15031), which “dose-dependent thermal stabilisation call” value is on record?
A: Its value is active: 1.

Q: For LACTB2 (UniProt Q53H82), which “dose-dependent thermal stabilisation call” value is on record?
A: The value was inactive: 0.

Q: For KDM2B (UniProt Q8NHM5), which “dose-dependent thermal stabilisation call” value is on record?
A: Its value is inactive: 0.

Q: How did the “dose-dependent thermal stabilisation call” value turn out when IGBP1 (UniProt P78318) was run?
A: The value was inactive: 0.

Q: How did the “dose-dependent thermal stabilisation call” value turn out when INPP4A (UniProt Q96PE3) was run?
A: Its value is inactive: 0.

Q: With HSPA9 (UniProt P38646) as the target, how does the “dose-dependent thermal stabilisation call” value read?
A: Its value is active: 1.

Q: IBA57 (UniProt Q5T440) was tested. Which “dose-dependent thermal stabilisation call” value did it give?
A: The value was inactive: 0.

Q: For KDM1A (UniProt O60341), which “dose-dependent thermal stabilisation call” value is on record?
A: Its value is inactive: 0.

Q: For HSPA4 (UniProt P34932), which “dose-dependent thermal stabilisation call” value is on record?
A: Its value is inactive: 0.

Q: With IFT22 (UniProt Q9H7X7) as the target, how does the “dose-dependent thermal stabilisation call” value read?
A: The value was inactive: 0.

Q: For IFI35 (UniProt P80217), which “dose-dependent thermal stabilisation call” value is on record?
A: The value was inactive: 0.

Q: How did the “dose-dependent thermal stabilisation call” value turn out when ISCA2 (UniProt Q86U28) was run?
A: The value was inactive: 0.

Q: KPNA4 (UniProt O00629) was tested. Which “dose-dependent thermal stabilisation call” value did it give?
A: The value was inactive: 0.

Q: How did the “dose-dependent thermal stabilisation call” value turn out when LASP1 (UniProt Q14847) was run?
A: The value was inactive: 0.

Q: With LIN54 (UniProt Q6MZP7) as the target, how does the “dose-dependent thermal stabilisation call” value read?
A: The value was inactive: 0.

Q: For KCTD9 (UniProt Q7L273), which “dose-dependent thermal stabilisation call” value is on record?
A: Its value is active: 1.

Q: KCTD10 (UniProt Q9H3F6) was tested. Which “dose-dependent thermal stabilisation call” value did it give?
A: The value was inactive: 0.

Q: For HNRNPR (UniProt O43390), which “dose-dependent thermal stabilisation call” value is on record?
A: Its value is inactive: 0.

Q: How did the “dose-dependent thermal stabilisation call” value turn out when HSPBAP1 (UniProt Q96EW2) was run?
A: Its value is inactive: 0.

Q: KIAA0586 (UniProt Q9BVV6) was tested. Which “dose-dependent thermal stabilisation call” value did it give?
A: Its value is inactive: 0.

Q: Which “dose-dependent thermal stabilisation call” value does the source give for LCK (UniProt P06239) here?
A: Its value is active: 1.

Q: With KHK (UniProt P50053) as the target, how does the “dose-dependent thermal stabilisation call” value read?
A: The value was inactive: 0.

Q: With KIF1B (UniProt O60333) as the target, how does the “dose-dependent thermal stabilisation call” value read?
A: Its value is active: 1.

Q: KIDINS220 (UniProt Q9ULH0) was tested. Which “dose-dependent thermal stabilisation call” value did it give?
A: Its value is inactive: 0.

Q: For INTS7 (UniProt Q9NVH2), which “dose-dependent thermal stabilisation call” value is on record?
A: Its value is inactive: 0.

Q: With ISL2 (UniProt Q96A47) as the target, how does the “dose-dependent thermal stabilisation call” value read?
A: Its value is inactive: 0.

Q: For INTS14 (UniProt Q96SY0), which “dose-dependent thermal stabilisation call” value is on record?
A: The value was inactive: 0.

Q: How did the “dose-dependent thermal stabilisation call” value turn out when LIG4 (UniProt P49917) was run?
A: The value was inactive: 0.

Q: KCNAB2 (UniProt Q13303) was tested. Which “dose-dependent thermal stabilisation call” value did it give?
A: The value was inactive: 0.

Q: How did the “dose-dependent thermal stabilisation call” value turn out when KPNA1 (UniProt P52294) was run?
A: The value was active: 1.

Q: HTRA2 (UniProt O43464) was tested. Which “dose-dependent thermal stabilisation call” value did it give?
A: Its value is inactive: 0.

Q: For LIN7C (UniProt Q9NUP9), which “dose-dependent thermal stabilisation call” value is on record?
A: The value was inactive: 0.

Q: Which “dose-dependent thermal stabilisation call” value does the source give for HRAS (UniProt P01112) here?
A: Its value is active: 1.
